Data source: PubChem BioAssay AID1259308 (NCATS, 2017)
Shown is a random part of about 59,000 deposited reagents. Of all reagents, about 1,510 (2.6%) were called active. 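Calls use total luciferase alone and ignore viability, so some active siRNAs may act by altering cell number.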 Reagents against one gene are numbered here. Further read-outs or replicates are left out here.

Aim: 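Knock-downs that increase output of a recombinant reporter protein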 (primary screen)
Cells: human HEK293 embryonic kidney cells stably expressing firefly luciferase (HEK-CMV-Luc2-Hygro)
Reagent: single siRNA against human genes, 0.8 pmol siRNA per well
Timing: 72 h
Measurement: 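Reporter luminescence and viable-cell signal on separate replicate plates, given as percent of non-targeting control and median/MAD z-scores, plus per-cell luciferase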
Direction: total luciferase, z-score and total luciferase, % of control: higher = more reporter protein produced
Hit rule: 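Active when the median/MAD z-score for overall luciferase is greater than 3; a gene was taken forward for validation with new siRNAs if at least two of its three siRNAs passed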
Meaning of the calls: active = raised luciferase; inactive = no rise

target gene	reagent	total luciferase, z-score	total luciferase, % of control	activity call
FHIP2A	1	-0.74	67.2	inactive
FHIP2A	2	-0.29	76.1	inactive
FHIP2A	3	0.414	90.1	inactive
BCL2L13	1	0.215	86.2	inactive
BCL2L13	2	0.123	84.3	inactive
BCL2L13	3	0.785	97.5	inactive
BTNL8	1	1.46	111	inactive
BTNL8	2	0.262	87.1	inactive
BTNL8	3	1.34	109	inactive
GPATCH2	1	-0.614	69.7	inactive
GPATCH2	2	-0.499	72	inactive
GPATCH2	3	0.307	88	inactive
CDC42EP2	1	0.0244	82.4	inactive
CDC42EP2	2	-1.52	51.6	inactive
CDC42EP2	3	-2.06	41	inactive
ACTR3	1	-0.0872	80.2	inactive
ACTR3	2	-0.457	72.8	inactive
ACTR3	3	-1.17	58.7	inactive
SIRT3	1	-0.223	77.5	inactive
SIRT3	2	-0.331	75.3	inactive
SIRT3	3	0.27	87.3	inactive
MAP4K5	1	0.55	92.8	inactive
MAP4K5	2	-0.807	65.8	inactive
MAP4K5	3	-0.993	62.1	inactive
ZNF284	1	-0.222	77.5	inactive
ZNF284	2	-0.148	79	inactive
ZNF284	3	-0.338	75.2	inactive
GAPVD1	1	-2.5	32.2	inactive
GAPVD1	2	-0.187	78.2	inactive
GAPVD1	3	0.12	84.3	inactive
SLC6A11	1	-0.522	71.5	inactive
SLC6A11	2	-0.0795	80.3	inactive
SLC6A11	3	1.26	107	inactive
FAM222A	1	-1.97	42.8	inactive
FAM222A	2	1.3	108	inactive
FAM222A	3	1.35	109	inactive
MPHOSPH10	1	-0.918	63.6	inactive
MPHOSPH10	2	-0.978	62.4	inactive
MPHOSPH10	3	-1.46	52.9	inactive
TRIM51	1	-0.161	78.7	inactive
TRIM51	2	-0.79	66.2	inactive
TRIM51	3	0.628	94.4	inactive
TVP23B	1	-0.879	64.4	inactive
TVP23B	2	-0.492	72.1	inactive
TVP23B	3	2.51	132	inactive
MED10	1	-1.38	54.4	inactive
MED10	2	-0.593	70.1	inactive
MED10	3	-0.726	67.4	inactive
TM2D1	1	-0.733	67.3	inactive
TM2D1	2	-0.99	62.2	inactive
TM2D1	3	-0.148	78.9	inactive
MIOX	1	-0.0493	80.9	inactive
MIOX	2	0.706	95.9	inactive
MIOX	3	-0.465	72.6	inactive
SCLY	1	1.21	106	inactive
SCLY	2	0.0903	83.7	inactive
SCLY	3	0.0687	83.3	inactive

7 of these entries in another layout:
target gene,reagent,"total luciferase, z-score","total luciferase, % of control",activity call
FHIP2A,1,-0.74,67.2,inactive
FHIP2A,2,-0.29,76.1,inactive
FHIP2A,3,0.414,90.1,inactive
BCL2L13,1,0.215,86.2,inactive
BCL2L13,2,0.123,84.3,inactive
BCL2L13,3,0.785,97.5,inactive
BTNL8,1,1.46,111,inactive
